From article PMC4467402
No constants are given. Whether binding was seen depends on the method and setting. In cells and extracts the contact can be indirect. Some results given as binding are weak or reduced against the parent protein; the word gives no strength. Tags and fused reporters may be left off the sequences shown.

The chains behind the UniProt entries cited, without tags or fusion partners.
UniProt Q96GD4: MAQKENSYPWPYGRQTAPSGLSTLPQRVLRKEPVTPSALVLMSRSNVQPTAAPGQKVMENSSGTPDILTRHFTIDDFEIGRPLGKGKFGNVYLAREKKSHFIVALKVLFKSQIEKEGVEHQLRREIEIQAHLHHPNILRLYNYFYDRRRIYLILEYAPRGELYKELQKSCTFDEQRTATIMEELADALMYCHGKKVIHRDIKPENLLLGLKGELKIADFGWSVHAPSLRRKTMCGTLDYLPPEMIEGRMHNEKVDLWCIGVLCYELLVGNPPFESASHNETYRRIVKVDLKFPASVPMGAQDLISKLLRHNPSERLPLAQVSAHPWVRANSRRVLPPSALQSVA

Target: T1, Flag-ETS-1 (UniProt P14921)
T1 sequence: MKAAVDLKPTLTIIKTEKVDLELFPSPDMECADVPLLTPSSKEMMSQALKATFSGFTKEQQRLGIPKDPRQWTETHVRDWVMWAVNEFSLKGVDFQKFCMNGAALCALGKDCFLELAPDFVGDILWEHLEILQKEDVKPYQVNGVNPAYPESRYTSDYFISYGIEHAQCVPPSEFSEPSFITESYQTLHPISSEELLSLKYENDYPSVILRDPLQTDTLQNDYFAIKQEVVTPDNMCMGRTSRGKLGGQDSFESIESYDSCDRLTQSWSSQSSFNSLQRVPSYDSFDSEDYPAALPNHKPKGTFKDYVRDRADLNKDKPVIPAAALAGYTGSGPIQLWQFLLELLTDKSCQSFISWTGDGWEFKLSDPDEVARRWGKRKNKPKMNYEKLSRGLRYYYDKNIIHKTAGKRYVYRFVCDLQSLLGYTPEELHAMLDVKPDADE
Assay: co-IP; Saos-2 (p53-/-) cells transfected with tagged ETS-1 and AK-B, without or with p53; immunoprecipitation of Flag-ETS-1, blot for AK-B; lysis and washes in RIPA buffer (10 mM Tris pH 7.5, 150 mM NaCl, 2 mM EDTA, 1% NP40), 4°C

binding: binds
Substance: Aurora kinase B (from UniProt Q96GD4 1-344) (enzyme)
